Source: PubChem BioAssay AID540256 (National Center for Advancing Translational Sciences (NCATS), 2011)
Out of some 300,000 compounds screened, about 3,700 (1.2%) were called active. The inconclusive results got no clear call from the source; some entries with a clear call stand among them for comparison. The call rests on the fitted dose curve; tested in HEK293 cells. Potencies of inconclusive entries are doubtful fits and often do not repeat.

Experiment: qHTS for Inhibitors of binding or entry into cells for Lassa Virus; further: nearly all actives have a fitted effect of over 50% in size
Details: Lassa virus pseudotype entry inhibition, cell reporter; series mostly up to 37.9 µM
Potency means the concentration at half of the fitted maximal effect.

Which Potency does the source give for `COc1ccc2oc(=N)c(C(=O)Nc3cccc(C)c3C)cc2c1` here?
Its Potency is inconclusive: 1.26 µM [activator, full curve].

For `Cc1ccc(C)c(S(=O)(=O)N2CCCC2CNC(=O)C(=O)NCc2ccccc2)c1` (stereo not drawn), which Potency is on record?
The Potency was inconclusive: 11.2 µM [inhibitor, single point].

For `Cc1cc(NC(=O)c2cc(-c3ccco3)on2)nn1Cc1ccc(Cl)cc1`, which Potency is on record?
Its Potency is inconclusive: 5.17 µM [inhibitor, partial curve, poor fit].

With `CCCOc1ccc(C(=O)NCCc2ccccc2)cc1` as the compound, how does the Potency read?
The Potency was active: 2.51 µM.

With `CCOc1ccc(-n2nc3ccc(NC(=O)c4ccc(C)cc4C)cc3n2)cc1` as the compound, how does the Potency read?
The Potency was “inactive”.

Which Potency does the source give for `Cc1ccc(CCNC(=O)c2cc3cc(S(=O)(=O)N4CCCCC4)ccc3n2C)cc1` here?
The Potency was inconclusive: 5.62 µM [activator, single point].

With `COc1ccccc1CC(=O)N1CCN(c2ccccn2)CC1` as the compound, how does the Potency read?
The Potency was “inactive”.

With `Cc1ccc(C(C(=O)NC(C)(C)C)N(Cc2cccs2)C(=O)c2ccc3c(c2)OCCO3)cc1` (stereo not drawn) as the compound, how does the Potency read?
The Potency was inconclusive: 29.1 µM [inhibitor, single point].

With `COc1cc(/C=N/OCC(=O)NC23CC4CC(CC(C4)C2)C3)ccc1OCc1ccccc1` as the compound, how does the Potency read?
Its Potency is inconclusive: 35.5 µM [inhibitor, single point].

With `Cc1cccc(N(C)C(=O)c2cc3c(=O)oc4ccc(C)cc4c3s2)c1` as the compound, how does the Potency read?
Its Potency is inconclusive: 6.31 µM [inhibitor, single point].

Which Potency does the source give for `Cc1ccnc(NC(c2cccnc2)c2ccc3cccnc3c2O)c1` (stereo not drawn) here?
Its Potency is inconclusive: 11.2 µM [inhibitor, partial curve, poor fit].

With `O=C(CN1C(=O)COc2ccccc21)NCCN1CCC(Cc2ccccc2)CC1` as the compound, how does the Potency read?
Its Potency is “inactive”.

Which Potency does the source give for `CC(=C\c1ccccc1)/C=C1/SC(=S)N(C(C(=O)O)C(C)C)C1=O` (stereo not drawn) here?
The Potency was “inactive”.

With `CC(C)c1ccc(S(=O)(=O)N2CCN(C(C)C(=O)N3CCCC3)CC2)cc1` (stereo not drawn) as the compound, how does the Potency read?
Its Potency is inconclusive: 3.55 µM [inhibitor, full curve, poor fit].

With `O=C(Nc1nc(-c2cc(Cl)sc2Cl)cs1)c1cccs1` as the compound, how does the Potency read?
The Potency was inconclusive: 22.4 µM [inhibitor, single point].

With `O=C(Nc1ccc(Cl)cc1)c1ccc(OCC2CCCO2)cc1` (stereo not drawn) as the compound, how does the Potency read?
Its Potency is inconclusive: 1.26 µM [activator, single point].

With `Cc1cccc(Nc2nc(-c3ccc4c(c3)OCCO4)cs2)c1` as the compound, how does the Potency read?
Its Potency is inconclusive: 25.1 µM [inhibitor, single point].

With `O=c1c2c(nc3n1CCCCC3)sc1c(O)c(Br)ccc12` as the compound, how does the Potency read?
Its Potency is inconclusive: 13 µM [inhibitor, partial curve, poor fit].
